For 54 compounds, AC50 results are on record in PubChem BioAssay AID1487 (National Center for Advancing Translational Sciences (NCATS), 2009).

This assay in a line: qHTS Assay for Modulators of Lamin A Splicing. The settings on record: HeLa LMNA splicing GFP/RFP minigene ratio, 48 h. In short, it runs like this:
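S3 HeLa stable clones carrying a lamin A-EGFP splicing minigene plus DsRed2 were seeded at 600 cells/well in Opti-MEM with 2% FBS, pin-dosed and incubated 48 h at 37°C. Acumen cytometry (488 nm) gave the GFP/RFP total-intensity ratio.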
In general terms: In qHTS, concentration-response curves come from the screen itself.

Where [1] appears, read: measured here: GFP splicing reporter channel.
Where [2] appears, read: measured here: RFP viability control channel.

Structures are written as SMILES. The list shows a part of the results. The main result of the screen is listed elsewhere. These columns were measured beside it and carry no call. Most of these compounds were active or inconclusive in the main read-out, so they are no random draw. The note in brackets gives the kind of curve behind each potency; many fits are weak.

Turning to `CN1CCc2cc(Cl)c(O)cc2C(c2ccccc2)C1` (configuration not stated), the concentration at half-maximal activity (AC50) (as a rule, the concentration at which the activity in the assay is half-maximal) under setting [1] was 0.0794 µM [falling, full curve, poor fit]. In the case of `C=CC[C@@H]1C=C[C@H](O/N=C/c2ccc(C(=O)N3[C@H](c4ccc(C)cc4)[C@@H](C)CC[C@H]3C(=O)OC)cc2)[C@@H](CO)O1`, the AC50 under setting [2] is 31.6 µM [rising, single point]. As for `COc1ccccc1Nc1nc(-c2sc(NC(=O)c3ccco3)nc2C)cs1`, the AC50 is, setting by setting: under setting [1], 1.26 µM [falling, full curve, poor fit]; under setting [2], 1.41 µM [falling, partial curve, poor fit]. As to `O=C(NCc1ccc(F)cc1)Nc1cccc(Cl)c1`, the AC50 under setting [1] was 10 µM [falling, partial curve]. In the case of `Cc1ccccc1NC(=O)c1cccc(OCc2c(C)noc2C)c1`, the AC50 was 20 µM [rising, partial curve] under setting [1] and 35.5 µM [rising, single point] under setting [2].

With `CCSc1nc2sc3c(c2c(=O)n1CC)CC(C)(C)OC3`, the AC50 under setting [1] was 0.447 µM [rising, full curve, poor fit]. Regarding `COc1ccc(/C=N/NC(=O)c2cc(-c3ccc4c(c3)OCO4)n[nH]2)cc1OC`, the AC50 under setting [2] was 12.6 µM [rising, partial curve]. Still for that read-out and setting: the same measure for `CCCCCOP(=O)(OCCCCC)C1(NS(=O)(=O)c2ccccc2)C=CC(=O)c2ccccc21` (configuration not stated): 35.5 µM [rising, single point]; for `CC1=C(C(=O)OC(C)C)C(c2ccc(Br)s2)NC(=O)N1C` (configuration not stated): 12.6 µM [rising, single point]. `Cc1ccc(C)c(N(C)S(=O)(=O)c2cccc3nsnc23)c1`: the AC50 was 25.1 µM [rising, single point] under setting [1] and 14.1 µM [rising, single point] under setting [2]. Take `CC(C)=CCCC(C)CN1CCC(N2CCC(C(=O)N3CCCC3)CC2)CC1` (configuration not stated): the concentration at half-maximal activity (AC50) is 28.2 µM [falling, single point] under setting [1] and 35.5 µM [falling, single point] under setting [2]. Regarding `NS(=O)(=O)c1ccc(NC(=S)N2CCN(c3ccccc3Cl)CC2)cc1`, the concentration at half-maximal activity (AC50) is, setting by setting: under setting [1], 12.6 µM [rising, partial curve]; under setting [2], 25.1 µM [rising, single point]. For `C/C(=N\NC(=O)c1ccc(N(C)C)cc1)c1ccc(C)cc1C`, the AC50 under setting [2] is 1.41 µM [rising, partial curve]. Regarding `CCCCCC(=O)Nc1sc(C)c(C)c1C#N`, under setting [2], the AC50 is 35.5 µM [rising, single point]. Turning to `C[C@]12CC[C@@H]3c4ccc(O)cc4CC[C@H]3[C@@H]1CCC2=O`, the AC50 was 14.1 µM [rising, single point] under setting [1] and 0.0112 µM [falling, full curve, poor fit] under setting [2]. With `Cc1ccc(C)c(N2CCN(C(=O)CN3CCSc4ccc(S(=O)(=O)N(C)C)cc43)CC2)c1`, under setting [2], the AC50 was 0.0282 µM [rising, full curve, poor fit].

For the compound `Cc1nc(SCc2ccc(OCCC(C)C)cc2)n[nH]1`, under setting [2], the half-maximal activity concentration (AC50) was 10 µM [rising, partial curve]. For the compound `O=C(Nc1nnc(-c2ccccc2)o1)c1cc(Cl)sc1Cl`, the AC50 under setting [2] was 0.02 µM [falling, full curve, poor fit]. As for `CCOC(=O)C(CC)Sc1cc(C)nc2ccc(OC)cc12` (configuration not stated), the AC50 under setting [2] is 1.41 µM [rising, full curve, poor fit]. On to `Cc1c(C(=O)Nc2ccncc2)sc2nc(-c3ccccc3)cn12`, for which the AC50 under setting [2] is 10 µM [rising, partial curve, poor fit]. With `CN(C)c1ccc(-c2nc(NCc3cccnc3)c3ccccc3n2)cc1`, the AC50 under setting [1] was 35.5 µM [falling, single point] and the AC50 under setting [2] is 35.5 µM [falling, single point]. In the case of `Nc1ccc(N2CCN(c3ccccc3)CC2)c(F)c1`, the AC50 under setting [2] is 12.6 µM [rising, single point].

For the compound `O=C(Oc1c(-c2ccccc2)oc2ccccc2c1=O)c1ccccc1`, the AC50 is 5.62 µM [rising, partial curve] under setting [1] and 15.8 µM [rising, partial curve, poor fit] under setting [2]. Take `COc1ccc(OC)c(Cc2nnc(CCC(=O)NC(C3CC3)C3CC3)o2)c1`: the AC50 is, setting by setting: under setting [1], 3.16 µM [rising, single point]; under setting [2], 3.98 µM [rising, full curve, poor fit].

As for `COc1cccc(/C=N/n2c(=O)[nH]c3ccccc32)c1OC`, the AC50 under setting [1] was 10 µM [rising, single point]. In the case of `Cc1cc(NCCCN2CCOCC2)n2nc(C)c(-c3ccccc3)c2n1`, the AC50 under setting [1] was 11.2 µM [rising, partial curve] and the AC50 under setting [2] is 10 µM [rising, partial curve]. For the compound `CCOC(=O)Cc1csc(/N=C/c2c(O)n(-c3ccc(C)cc3C)c(=O)c3ccccc23)n1`, the AC50 under setting [2] is 12.6 µM [rising, partial curve, poor fit].

Consider `CCOc1ccc(-c2cn(S(=O)(=O)c3cccc4nsnc34)nc2N)cc1`, for which the AC50 under setting [2] is 31.6 µM [rising, single point]. `COc1cc(C(=O)NNc2nc3cc4c(cc3s2)OCO4)cc(OC)c1OC`: the half-maximal activity concentration (AC50) is 35.5 µM [rising, single point] under setting [1] and 35.5 µM [rising, single point] under setting [2]. As to `Cc1cc(C)cc(N(CCC(=O)O)S(=O)(=O)c2ccc3ccccc3c2)c1`, the AC50 is, setting by setting: under setting [1], 5.62 µM [falling, partial curve, poor fit]; under setting [2], 20 µM [rising, single point]. On to `N#Cc1c(NC(=O)C2CC=CCC2C(=O)O)sc2c1CCCCCC2` (configuration not stated), for which, under setting [2], the AC50 was 14.1 µM [rising, partial curve].

Consider `C=CCn1c(SCc2ccc(C(=O)Nc3nccs3)cc2)nnc1-c1ccc(C)c(Cl)c1`, for which the AC50 under setting [2] is 22.4 µM [rising, single point]. With `CC1CCN(S(=O)(=O)c2ccc3ccccc3c2)CC1`, the AC50 under setting [2] was 25.1 µM [rising, single point]. In the case of `CC(=O)c1c(C)[nH]c(C(=O)OCCOc2ccccc2)c1C`, the AC50 is, setting by setting: under setting [1], 0.00631 µM [rising, full curve, poor fit]; under setting [2], 20 µM [rising, partial curve, poor fit]. Turning to `CCCCCCCC/C=C\CCCCCCCC(=O)NCCc1ccc(O)c(O)c1`, the half-maximal activity concentration (AC50) is, setting by setting: under setting [1], 10 µM [falling, partial curve]; under setting [2], 10 µM [falling, partial curve]. Regarding `COc1ccc(C)cc1NC(=O)C(OC(=O)c1cccc(S(=O)(=O)N(C)c2ccccc2)c1)c1ccccc1` (configuration not stated), the AC50 runs as follows: under setting [1], 0.2 µM [rising, partial curve]; under setting [2], 0.501 µM [rising, full curve, poor fit]. Consider `Cc1cc(C(F)(F)F)c(C#N)c(SCC(=O)Nc2nc3ccccc3s2)n1`, for which the AC50 reads like this: under setting [1], 3.16 µM [falling, partial curve, poor fit]; under setting [2], 35.5 µM [falling, partial curve, poor fit]. Take `COc1ccc(/C(C)=N\NC(=O)c2ccc3c(c2)OCO3)cc1OC`: the AC50 by setting is: under setting [1], 0.00316 µM [rising, full curve, poor fit]; under setting [2], 0.00501 µM [rising, full curve, poor fit]. For the compound `FC(F)(F)c1ccc(Oc2ccccc2Cl)nc1`, the AC50 under setting [1] is 5.62 µM [falling, single point]. On to `CCOc1ccc(NC(=O)CSc2nc3ccsc3c(=O)n2C(C)CC)cc1` (configuration not stated), for which the AC50 is 1.78 µM [falling, partial curve, poor fit] under setting [1] and 0.0891 µM [falling, full curve] under setting [2]. Take `Cc1cc(OCC(=O)Nc2ccc(S(=O)(=O)N3CCN(C)CC3)cc2)ccc1Cl`: the AC50 under setting [2] was 35.5 µM [rising, single point]. On the same count and under the same terms, as for `Cc1cc(C)nc(SCC(=O)N/N=C/c2cc(C)n(-c3ccccc3C)c2C)n1`, the figure is 31.6 µM [rising, single point]. As to `COc1ccc(S(=O)(=O)Nc2ccccc2OC)cc1NC(=O)CC1CC2CCC1C2` (configuration not stated), the AC50 under setting [2] was 11.2 µM [rising, partial curve]. Turning to `O=C(COc1cccc(NC(=O)c2cccs2)c1)c1ccc(F)cc1`, the concentration at half-maximal activity (AC50) under setting [1] is 12.6 µM [rising, partial curve] and the AC50 under setting [2] is 15.8 µM [rising, partial curve]. With `CCCC(=O)c1cc(F)c(N2CCN(C(=O)OCC)CC2)cc1C`, the AC50 under setting [2] is 31.6 µM [rising, single point]. As for `C/C(Cn1nnc([N+](=O)[O-])n1)=N\NC(=O)c1ccc(O)cc1O`, the AC50 was 5.01 µM [rising, full curve, poor fit] under setting [1] and 12.6 µM [rising, partial curve] under setting [2]. On to `COc1ccc2[nH]c3c(N4CCN(Cc5ccc6c(c5)OCO6)CC4)ncnc3c2c1`, for which, under setting [2], the AC50 is 8.91 µM [rising, partial curve]. For `Cc1ccc(/C=C/C(=O)Nc2ccccc2C(N)=O)cc1`, under setting [2], the AC50 was 15.8 µM [rising, single point]. Consider `COc1ccc(-c2noc(N3CCC(C(=O)N4CCN(c5ccccc5OC)CC4)CC3)n2)cc1`, for which the AC50 under setting [1] is 35.5 µM [rising, single point] and the concentration at half-maximal activity (AC50) under setting [2] is 35.5 µM [rising, single point]. For `O=C1c2ccccc2C(Nc2ccc3c(c2)OCCO3)N1Cc1ccc2c(c1)OCO2` (configuration not stated), the AC50 under setting [2] is 5.62 µM [rising, partial curve]. Regarding `CC[n+]1ccc(/C=C/c2ccc(N(C)C)cc2)c2ccccc21`, the AC50 runs as follows: under setting [1], 31.6 µM [falling, single point]; under setting [2], 3.98 µM [rising, single point].

Take `COC(=O)c1ccccc1S(=O)c1snnc1C` (configuration not stated): the AC50 is, setting by setting: under setting [1], 0.501 µM [rising, full curve]; under setting [2], 0.794 µM [rising, partial curve]. Take `COc1cc(-c2nc(-c3ccc4c(c3)-c3ccccc3S4(=O)=O)c(-c3ccccc3)[nH]2)cc(OC)c1O`: under setting [2], the half-maximal activity concentration (AC50) is 11.2 µM [rising, single point]. For `CC(C)(C)n1cnc2cc(NCc3cccs3)ccc21`, the AC50 under setting [1] was 0.01 µM [falling, full curve, poor fit].
